For one substance, step yield results are on record in patent US10053491 (dated 2018).

The series can be described thus: general procedure: Fmoc solid-phase peptide synthesis; resin for Fmoc solid-phase synthesis. Particulars: late stage modification step.

The star is where a group is joined. NHNH2 = NN*

Ac-LYRAA-NHNH2 returned a step yield of 63%. The substance further had a step yield (isolation yield) of 80%.
